The list shows only some results of the screen, not a fair sample: it gathers tests that were run many times, whatever their T/C, doses with no T/C, and many T/C values between a quarter and a half above the control. Other doses and runs of a compound stand elsewhere. T/C: endpoint of the treated group in % of that of the vehicle group. Some entries give survivors of the animals treated and no T/C: the source holds a T/C of zero for them, seemingly a mark for toxic or unscored doses. Some doses without a T/C left all or most animals alive at the check, yet need not have been tolerated: the source hardly ever lists a survival T/C far under the control, and the zero likely stands for such cases as well. Counts of survivors are from the toxicity check (mostly the fifth day) where no day follows; animals may have died later. Schedules are NCI's codes, taken here to give the interval after Q, in days (D) or hours (H), and the number of doses after X. Some structures stand for samples that the source files as different forms (salt, stereo form or complex); doses refer to the form tested. For survival time, the PubChem record calls one and a half times the control and up active, and a quarter to a half above the control has no call in these data; cut-offs in other NCI protocols can differ. Some entries hold several experiments; the results are listed from low to high. Some T/C values are followed by the survivors on the day toxicity was checked, most often the fifth; where none is given, no animal had died by that day.
Test system: CD2F1 mice, L1210 leukemia ip, survival T/C
Assay: NCI In Vivo Anticancer Drug Screen. Data for tumor model L1210 Leukemia (intraperitoneal) in CD2F1 (CDF1) mice
Settings: higher T/C = longer survival
In short: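 Vehicle-treated tumor-bearing mice served as controls (C) for compound-treated mice (T). Reported figure is T divided by C.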

[1] = T/C endpoint: mean survival time, dose: 200.0 mg/kg/injection, schedule: Q04DX003 (ip), vehicle: saline
[2] = T/C endpoint: mean survival time, dose: 300.0 mg/kg/injection, schedule: Q01DX009 (ip), vehicle: saline with Tween-80
[3] = T/C endpoint: mean survival time, dose: 200.0 mg/kg/injection, schedule: Q01DX009 (ip), vehicle: saline
[4] = T/C endpoint: median survival time, dose: 350.0 mg/kg/injection, schedule: Q01DX009 (ip), vehicle: saline

With O=C(O)C(O)C(O)C(=O)O.[NH-]C1CCCCCC1[NH-].[Pt+2] (stereo unspecified) the T/C (T/C endpoint: mean survival time, dose: 5.0 mg/kg/injection, schedule: Q04DX003 (ip), vehicle: dextrose) was 142 % of control, the T/C (T/C endpoint: mean survival time, dose: 10.0 mg/kg/injection, schedule: Q04DX003 (ip), vehicle: dextrose) was 141 and 146 % of control and the survivor count (T/C endpoint: mean survival time, dose: 80.0 mg/kg/injection, schedule: Q04DX003 (ip), vehicle: dextrose) was 4 of 6.
In the case of CC1(C)COC(=O)N1, the survivor count [1] is reported as 6 of 6, the survivor count [2] is reported as 0 of 6 and the survivor count (T/C endpoint: mean survival time, dose: 400.0 mg/kg/injection, schedule: Q04DX003 (ip), vehicle: saline) is reported as 0 of 6.
In the case of COCC1=Nc2c(ncnc2SCc2ccccc2)NN1, the survivor count (T/C endpoint: mean survival time, dose: 200.0 mg/kg/injection, schedule: Q01DX001 (ip), vehicle: other) is reported as 1 of 6 and the survivor count (T/C endpoint: mean survival time, dose: 400.0 mg/kg/injection, schedule: Q01DX001 (ip), vehicle: other) is reported as 0 of 6.
For CCCCN(CCCC)CCCN(CCCOS(C)(=O)=O)CCCOS(C)(=O)=O, the T/C (T/C endpoint: mean survival time, dose: 25.0 mg/kg/injection, schedule: Q01DX009 (ip), vehicle: saline) was 129 % of control, the T/C (T/C endpoint: mean survival time, dose: 50.0 mg/kg/injection, schedule: Q01DX001 (ip), vehicle: saline) was 130 % of control and the T/C (T/C endpoint: mean survival time, dose: 50.0 mg/kg/injection, schedule: Q04DX003 (ip), vehicle: saline) was 133 % of control. For the same compound, the T/C (T/C endpoint: mean survival time, dose: 75.0 mg/kg/injection, schedule: Q04DX003 (ip), vehicle: saline) was 145 % of control, the T/C (T/C endpoint: mean survival time, dose: 100.0 mg/kg/injection, schedule: Q01DX001 (ip), vehicle: saline) was 142 % of control and the T/C (T/C endpoint: mean survival time, dose: 150.0 mg/kg/injection, schedule: Q04DX003 (ip), vehicle: saline) was 128 % of control. The survivor count [3] was 0 of 6 and the survivor count [1] was 4 of 6.
For C#CC[N+](CC)(CC)CCNC(=O)CCCCCCCCCCCCCCC, the survivor count (T/C endpoint: mean survival time, dose: 150.0 mg/kg/injection, schedule: Q01DX001 (ip), vehicle: saline) was 1 of 6 and the survivor count (T/C endpoint: mean survival time, dose: 300.0 mg/kg/injection, schedule: Q01DX001 (ip), vehicle: saline) was 0 of 6.
In the case of O=C(O)C1C2CCC(C2)C1C(=O)O (stereo unspecified), the survivor count (T/C endpoint: mean survival time, dose: 400.0 mg/kg/injection, schedule: Q04DX003 (ip), vehicle: saline with Tween-80) is reported as 2 of 6.
For COc1ccc(/C=C(\C)[N+](=O)[O-])cc1OC, the survivor count (T/C endpoint: mean survival time, dose: 100.0 mg/kg/injection, schedule: Q01DX009 (ip), vehicle: water) was 5 of 6 and the survivor count (T/C endpoint: mean survival time, dose: 200.0 mg/kg/injection, schedule: Q01DX009 (ip), vehicle: water) was 3 of 6.
Oc1ccc2ccccc2c1 was tested, and the survivor count (T/C endpoint: mean survival time, dose: 100.0 mg/kg/injection, schedule: Q04DX003 (ip), vehicle: Klucel (hydroxypropylcellulose) (HPC)) was 0 of 6, the survivor count (T/C endpoint: mean survival time, dose: 200.0 mg/kg/injection, schedule: Q04DX003 (ip), vehicle: Klucel (hydroxypropylcellulose) (HPC)) was 0 of 6 and the survivor count (T/C endpoint: mean survival time, dose: 400.0 mg/kg/injection, schedule: Q04DX003 (ip), vehicle: Klucel (hydroxypropylcellulose) (HPC)) was 0 of 6.
Nc1ncnc2c1c1c(=S)[nH]c(=O)[nH]c1n2C1OC(CO)C(O)C1O (stereo unspecified) was tested, and the survivor count (T/C endpoint: mean survival time, dose: 200.0 mg/kg/injection, schedule: Q01DX005 (ip), vehicle: distilled water + Tween-80) was 0 of 4 and the survivor count (T/C endpoint: mean survival time, dose: 400.0 mg/kg/injection, schedule: Q01DX005 (ip), vehicle: distilled water + Tween-80) was 0 of 4.
In the case of O=C1/C(=C/c2ccc(Cl)cc2Cl)CCC/C1=C\c1ccc(Cl)cc1Cl, the survivor count (T/C endpoint: mean survival time, dose: 25.0 mg/kg/injection, schedule: Q01DX009 (ip), vehicle: saline with Tween-80) is reported as 6 of 6, the survivor count (T/C endpoint: mean survival time, dose: 50.0 mg/kg/injection, schedule: Q01DX009 (ip), vehicle: saline with Tween-80) is reported as 6 of 6 and the survivor count (T/C endpoint: mean survival time, dose: 100.0 mg/kg/injection, schedule: Q01DX001 (ip), vehicle: saline with Tween-80) is reported as 6 of 6. For the same compound, the survivor count (T/C endpoint: mean survival time, dose: 200.0 mg/kg/injection, schedule: Q01DX001 (ip), vehicle: saline with Tween-80) was 6 of 6 and the survivor count (T/C endpoint: mean survival time, dose: 400.0 mg/kg/injection, schedule: Q01DX001 (ip), vehicle: saline with Tween-80) was 6 of 6.
With Nc1nc(F)nc2c1ncn2C1OC(COP(=O)(O)O)C(O)C1O (stereo unspecified) the T/C (T/C endpoint: mean survival time, dose: 59.32 mg/kg/injection, schedule: Q01DX009 (ip), vehicle: saline with Tween-80) was 144 % of control, the T/C (T/C endpoint: mean survival time, dose: 59.32 mg/kg/injection, schedule: Q01DX009 (ip), vehicle: saline) was 128 % of control and the T/C (T/C endpoint: mean survival time, dose: 60.0 mg/kg/injection, schedule: Q01DX009 (ip), vehicle: saline) was 125 and 127 % of control. The T/C (T/C endpoint: mean survival time, dose: 88.98 mg/kg/injection, schedule: Q01DX009 (ip), vehicle: saline) was 126 % of control, the T/C (T/C endpoint: mean survival time, dose: 90.0 mg/kg/injection, schedule: Q01DX009 (ip), vehicle: saline) was 132 and 133 % of control and the T/C [3] was 149 % of control. The T/C (T/C endpoint: mean survival time, dose: 256.0 mg/kg/injection, schedule: Q01DX009 (ip), vehicle: saline) was 133 % of control, the survivor count [2] was 5 of 6 and the survivor count (T/C endpoint: mean survival time, dose: 300.0 mg/kg/injection, schedule: Q01DX009 (ip), vehicle: saline) was 5 of 6. For the same compound, the T/C (T/C endpoint: median survival time, dose: 25.0 mg/kg/injection, schedule: Q03HX024 (ip), vehicle: sodium bicarbonate) was 126 % of control, the T/C (T/C endpoint: median survival time, dose: 50.0 mg/kg/injection, schedule: Q03HX008 (ip), vehicle: sodium bicarbonate) was 132 % of control and the T/C (T/C endpoint: median survival time, dose: 60.0 mg/kg/injection, schedule: Q01DX009 (ip), vehicle: saline, evaluated on day 30) was 142 % of control. The T/C (T/C endpoint: median survival time, dose: 60.0 mg/kg/injection, schedule: Q01DX009 (ip), vehicle: saline, evaluated on day 60) was 145 % of control, the T/C (T/C endpoint: median survival time, dose: 70.0 mg/kg/injection, schedule: Q01DX009 (ip), vehicle: saline) was 127 and 135 % of control and the T/C (T/C endpoint: median survival time, dose: 74.1 mg/kg/injection, schedule: Q01DX009 (ip), vehicle: saline) was 145 % of control. For the same compound, the T/C (T/C endpoint: median survival time, dose: 75.0 mg/kg/injection, schedule: Q03HX008 (ip), vehicle: sodium bicarbonate) was 138 % of control, the T/C (T/C endpoint: median survival time, dose: 105.0 mg/kg/injection, schedule: Q01DX009 (ip), vehicle: saline) was 146 % of control and the T/C (T/C endpoint: median survival time, dose: 118.0 mg/kg/injection, schedule: Q01DX005 (iv), vehicle: sodium bicarbonate) was 137 % of control. The T/C (T/C endpoint: median survival time, dose: 200.0 mg/kg/injection, schedule: Q01DX005 (oral), vehicle: sodium bicarbonate) was 132 % of control [9 of 10 alive], the T/C (T/C endpoint: median survival time, dose: 234.0 mg/kg/injection, schedule: Q01DX009 (ip), vehicle: saline) was 127 % of control and the T/C (T/C endpoint: median survival time, dose: 266.0 mg/kg/injection, schedule: Q01DX001 (iv), vehicle: sodium bicarbonate) was 126 % of control. For the same compound, the T/C (T/C endpoint: median survival time, dose: 333.0 mg/kg/injection, schedule: Q01DX009 (ip), vehicle: saline) was 142 % of control, the T/C [4] was 135 % of control and the survivor count [4] was 6 of 6. For the same compound, the T/C (T/C endpoint: median survival time, dose: 400.0 mg/kg/injection, schedule: Q01DX001 (ip), vehicle: sodium bicarbonate) was 128 % of control, the T/C (T/C endpoint: median survival time, dose: 400.0 mg/kg/injection, schedule: Q01DX005 (ip), vehicle: sodium bicarbonate) was 125 % of control and the T/C (T/C endpoint: median survival time, dose: 400.0 mg/kg/injection, schedule: Q01DX005 (oral), vehicle: sodium bicarbonate) was 132 % of control [8 of 10 alive]. The T/C (T/C endpoint: median survival time, dose: 600.0 mg/kg/injection, schedule: Q01DX001 (ip), vehicle: sodium bicarbonate) was 125 % of control, the T/C (T/C endpoint: median survival time, dose: 600.0 mg/kg/injection, schedule: Q01DX001 (iv), vehicle: sodium bicarbonate) was 128 % of control and the survivor count (T/C endpoint: median survival time, dose: 600.0 mg/kg/injection, schedule: Q01DX005 (ip), vehicle: sodium bicarbonate) was 8 of 9. For the same compound, the survivor count (T/C endpoint: median survival time, dose: 600.0 mg/kg/injection, schedule: Q01DX005 (iv), vehicle: sodium bicarbonate) was 3 of 10, the T/C (T/C endpoint: median survival time, dose: 800.0 mg/kg/injection, schedule: Q01DX001 (ip), vehicle: saline) was 129 % of control [9 of 10 alive] and the T/C (T/C endpoint: median survival time, dose: 900.0 mg/kg/injection, schedule: Q01DX001 (ip), vehicle: sodium bicarbonate) was 142 % of control. For the same compound, the survivor count (T/C endpoint: median survival time, dose: 900.0 mg/kg/injection, schedule: Q01DX001 (iv), vehicle: sodium bicarbonate) was 5 of 10, the T/C (T/C endpoint: median survival time, dose: 1000.0 mg/kg/injection, schedule: Q04DX003 (ip), vehicle: sodium bicarbonate) was 141 % of control [9 of 10 alive] and the T/C (T/C endpoint: median survival time, dose: 1200.0 mg/kg/injection, schedule: Q01DX001 (ip), vehicle: saline) was 147 % of control [9 of 10 alive]. For the same compound, the survivor count (T/C endpoint: median survival time, dose: 1350.0 mg/kg/injection, schedule: Q01DX001 (ip), vehicle: sodium bicarbonate) was 6 of 10, the survivor count (T/C endpoint: median survival time, dose: 1350.0 mg/kg/injection, schedule: Q01DX001 (iv), vehicle: sodium bicarbonate) was 2 of 10 and the T/C (T/C endpoint: median survival time, dose: 1500.0 mg/kg/injection, schedule: Q01DX001 (ip), vehicle: saline) was 146 % of control [7 of 10 alive]. For the same compound, the survivor count (T/C endpoint: median survival time, dose: 1800.0 mg/kg/injection, schedule: Q01DX001 (ip), vehicle: saline) was 6 of 10.

Reference: PubChem BioAssay AID256 (DTP/NCI, 2004)
